Test results as given in article PMC7480105, “Wbox2: A clathrin terminal domain–derived peptide inhibitor of clathrin-mediated endocytosis” (The Journal of Cell Biology, 2020).
No constants are given. Whether binding was seen depends on the method and setting. Binding seen in cells or lysates may run through a third protein. These calls come from enrichment with a bait or labelling near it, and not all partners need be listed.

Protein sequences, listed by entry. Tags and fused reporters are not part of them. Residues count along the entry.
UniProt P49951, residues 1-1074: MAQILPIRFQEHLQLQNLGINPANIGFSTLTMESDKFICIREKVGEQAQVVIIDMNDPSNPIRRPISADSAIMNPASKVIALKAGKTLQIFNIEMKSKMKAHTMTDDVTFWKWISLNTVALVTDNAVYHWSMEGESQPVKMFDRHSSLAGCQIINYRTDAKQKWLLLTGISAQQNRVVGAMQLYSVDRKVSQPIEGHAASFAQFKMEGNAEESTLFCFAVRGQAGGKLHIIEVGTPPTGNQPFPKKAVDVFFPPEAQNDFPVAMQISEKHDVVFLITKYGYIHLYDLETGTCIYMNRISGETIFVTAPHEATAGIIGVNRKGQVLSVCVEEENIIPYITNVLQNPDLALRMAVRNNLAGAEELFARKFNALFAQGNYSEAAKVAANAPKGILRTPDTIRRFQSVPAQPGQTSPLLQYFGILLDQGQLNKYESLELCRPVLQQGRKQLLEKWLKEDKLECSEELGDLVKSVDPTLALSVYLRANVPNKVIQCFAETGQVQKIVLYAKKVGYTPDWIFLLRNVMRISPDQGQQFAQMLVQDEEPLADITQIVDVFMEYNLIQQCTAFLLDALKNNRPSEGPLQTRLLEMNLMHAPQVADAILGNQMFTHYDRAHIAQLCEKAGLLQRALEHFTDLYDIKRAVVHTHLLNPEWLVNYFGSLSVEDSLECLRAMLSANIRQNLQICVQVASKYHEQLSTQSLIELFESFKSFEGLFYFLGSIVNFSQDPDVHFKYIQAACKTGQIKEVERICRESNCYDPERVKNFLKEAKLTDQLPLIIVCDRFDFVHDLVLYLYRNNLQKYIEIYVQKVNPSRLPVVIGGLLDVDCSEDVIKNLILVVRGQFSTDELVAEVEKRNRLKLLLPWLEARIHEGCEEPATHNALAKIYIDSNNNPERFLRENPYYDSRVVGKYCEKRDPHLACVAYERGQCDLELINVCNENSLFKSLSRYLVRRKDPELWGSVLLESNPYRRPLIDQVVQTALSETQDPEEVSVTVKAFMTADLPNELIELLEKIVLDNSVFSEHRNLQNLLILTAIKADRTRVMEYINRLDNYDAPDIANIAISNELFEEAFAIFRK
UniProt Q9Y5X1: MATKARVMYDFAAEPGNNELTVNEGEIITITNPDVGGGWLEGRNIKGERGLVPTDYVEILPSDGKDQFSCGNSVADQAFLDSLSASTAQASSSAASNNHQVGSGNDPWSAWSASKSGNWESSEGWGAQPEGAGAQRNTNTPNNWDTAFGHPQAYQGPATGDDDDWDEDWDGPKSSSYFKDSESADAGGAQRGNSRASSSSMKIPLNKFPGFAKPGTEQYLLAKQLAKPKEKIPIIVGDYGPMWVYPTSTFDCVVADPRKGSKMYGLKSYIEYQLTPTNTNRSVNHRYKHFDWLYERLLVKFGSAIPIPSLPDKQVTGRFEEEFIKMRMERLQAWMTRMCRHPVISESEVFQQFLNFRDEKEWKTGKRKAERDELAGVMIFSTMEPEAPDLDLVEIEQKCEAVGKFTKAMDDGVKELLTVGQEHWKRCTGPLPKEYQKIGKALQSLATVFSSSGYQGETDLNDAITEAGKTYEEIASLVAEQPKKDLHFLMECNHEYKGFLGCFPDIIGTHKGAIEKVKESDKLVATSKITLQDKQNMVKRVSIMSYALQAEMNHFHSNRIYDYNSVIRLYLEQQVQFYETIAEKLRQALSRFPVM

Target: HA-tagged TDD: clathrin heavy chain N-terminal domain plus distal leg (residues 1-1,074) (UniProt P49951)
Experiment: affinity purification with mass spectrometry; HA-TDD immunoprecipitated from ARPE cell lysate (with or without HA-TDD expression) with HA antibody and Protein G Sepharose; Hepes/KCl buffer pH 7.4, 0.25% Triton X-100, 4°C; three independent trials

SNX9 (endogenous, ARPE cells) (from UniProt Q9Y5X1 1-595)
binding: binds
